PubChem BioAssay AID743121 – NCATS | 2013
The whole screen tested about 26,000 reagents; below is a part drawn at random. 167 of them (0.63%) count as active. 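Calls are per gene from RSA p-values that are not deposited; an individual active-marked siRNA can sensitise only weakly.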 Reagents against one gene are numbered here. Further read-outs or replicates are left out here.

Aim: 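Partners whose loss is lethal together with topoisomerase I blockade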 (primary screen)
Cells: MDA-MB-231 cells, a human breast cancer line
Reagent: single siRNA against human genes, 20 nM siRNA (0.8 pmol per well)
Timing: 120 h (drug added 48 h after transfection, read 72 h later)
Challenge: camptothecin 20 nM (about EC30) for 72 h; vehicle 0.1% DMSO in parallel plates
Measurement: 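CellTiter-Glo ATP signal, scaled to control siRNA as percent viability; sensitisation given as log2 of untreated divided by camptothecin-treated viability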
Reading the numbers: log2 vehicle/camptothecin viability: higher = stronger sensitisation to camptothecin; viability with camptothecin: higher = more viable cells
Units: viability with camptothecin in % of control
Rule for the call: 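Each gene scored by redundant siRNA activity (RSA) over its individual siRNA ratios; a gene is called active at p < 0.001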

With knock-down of NDP #1, the record shows log2 vehicle/camptothecin viability 0.155; viability with camptothecin 81.2; inactive. NDP #2 scored log2 vehicle/camptothecin viability -0.321; viability with camptothecin 85.1; inactive. With knock-down of NDP #3 the results were log2 vehicle/camptothecin viability -0.265; viability with camptothecin 114; inactive. Silencing of NDP #4 resulted in: log2 vehicle/camptothecin viability 0.246; viability with camptothecin 11.1; inactive. Against IFNL1 #1 the deposit lists log2 vehicle/camptothecin viability 0.027; viability with camptothecin 101; inactive. Against IFNL1 #2 the deposit lists log2 vehicle/camptothecin viability -0.0179; viability with camptothecin 101; inactive.

IFNL1 #3 showed log2 vehicle/camptothecin viability -0.258; viability with camptothecin 84.9; inactive. With knock-down of IFNL1 #4, the record shows log2 vehicle/camptothecin viability 0.129; viability with camptothecin 63.4; inactive. NOX4 #1 scored log2 vehicle/camptothecin viability -0.0564; viability with camptothecin 58.1; inactive. NOX4 #2 showed log2 vehicle/camptothecin viability 0.083; viability with camptothecin 38.5; inactive. After knock-down of NOX4 #3 the results were log2 vehicle/camptothecin viability -0.0555; viability with camptothecin 98.1; inactive. CHRNA2 #1 showed log2 vehicle/camptothecin viability -0.0766; viability with camptothecin 65.6; inactive.

With knock-down of CHRNA2 #2 the results were log2 vehicle/camptothecin viability 0.579; viability with camptothecin 50.3; inactive. CHRNA2 #3 gave log2 vehicle/camptothecin viability -0.602; viability with camptothecin 64.1; inactive. For CHRNA2 #4, the values are log2 vehicle/camptothecin viability 0.474; viability with camptothecin 23.8; inactive. After knock-down of FGF1 #1, the record shows log2 vehicle/camptothecin viability 0.0529; viability with camptothecin 85.3; inactive. Knock-down of FGF1 #2 resulted in: log2 vehicle/camptothecin viability 0.682; viability with camptothecin 37.6; inactive. Silencing of FGF1 #3 came out at: log2 vehicle/camptothecin viability -0.0951; viability with camptothecin 59.7; inactive.

Silencing of FGF1 #4 gave: log2 vehicle/camptothecin viability -0.354; viability with camptothecin 43.7; inactive.

8 entries from above in another layout:
{"Target gene": "NDP", "siRNA no.": 4, "log2 vehicle/camptothecin viability": 0.246, "viability with camptothecin": 11.1, "Outcome": "inactive"}
{"Target gene": "IFNL1", "siRNA no.": 1, "log2 vehicle/camptothecin viability": 0.027, "viability with camptothecin": 101, "Outcome": "inactive"}
{"Target gene": "IFNL1", "siRNA no.": 2, "log2 vehicle/camptothecin viability": -0.0179, "viability with camptothecin": 101, "Outcome": "inactive"}
{"Target gene": "IFNL1", "siRNA no.": 3, "log2 vehicle/camptothecin viability": -0.258, "viability with camptothecin": 84.9, "Outcome": "inactive"}
{"Target gene": "IFNL1", "siRNA no.": 4, "log2 vehicle/camptothecin viability": 0.129, "viability with camptothecin": 63.4, "Outcome": "inactive"}
{"Target gene": "NOX4", "siRNA no.": 1, "log2 vehicle/camptothecin viability": -0.0564, "viability with camptothecin": 58.1, "Outcome": "inactive"}
{"Target gene": "NOX4", "siRNA no.": 2, "log2 vehicle/camptothecin viability": 0.083, "viability with camptothecin": 38.5, "Outcome": "inactive"}
{"Target gene": "NOX4", "siRNA no.": 3, "log2 vehicle/camptothecin viability": -0.0555, "viability with camptothecin": 98.1, "Outcome": "inactive"}

The listing continues:
Depletion of SCNN1A #1 came out at: log2 vehicle/camptothecin viability 0.511; viability with camptothecin 21.5; inactive. For SCNN1A #2 the deposit lists log2 vehicle/camptothecin viability -0.282; viability with camptothecin 32.5; inactive. With knock-down of SCNN1A #3, the screen gave log2 vehicle/camptothecin viability -0.0713; viability with camptothecin 91.1; inactive. With knock-down of SUMO1P3 #1, the screen gave log2 vehicle/camptothecin viability -0.196; viability with camptothecin 129; inactive. Depletion of SUMO1P3 #2 resulted in: log2 vehicle/camptothecin viability -0.103; viability with camptothecin 108; inactive. Knock-down of SUMO1P3 #3 came out at: log2 vehicle/camptothecin viability -0.438; viability with camptothecin 94.7; inactive.

With knock-down of SUMO1P3 #4 the results were log2 vehicle/camptothecin viability -0.174; viability with camptothecin 108; inactive. PRKCZ #1 showed log2 vehicle/camptothecin viability 0.0972; viability with camptothecin 50.2; inactive. PRKCZ #2 showed log2 vehicle/camptothecin viability 0.0428; viability with camptothecin 74.6; inactive. With knock-down of PRKCZ #3, the screen gave log2 vehicle/camptothecin viability 0.0262; viability with camptothecin 76.2; inactive. Knock-down of PRKCZ #4 came out at: log2 vehicle/camptothecin viability 0.00798; viability with camptothecin 94.6; inactive. For GNS #1, the entry reads log2 vehicle/camptothecin viability -0.305; viability with camptothecin 51.7; inactive.

Silencing of GNS #2 gave: log2 vehicle/camptothecin viability -0.155; viability with camptothecin 55.5; inactive. For GNS #3 the deposit lists log2 vehicle/camptothecin viability -0.332; viability with camptothecin 67.5; inactive. CCR2 #1 scored log2 vehicle/camptothecin viability -0.177; viability with camptothecin 114; inactive. With knock-down of CCR2 #2, the record shows log2 vehicle/camptothecin viability -0.274; viability with camptothecin 108; inactive. With knock-down of CCR2 #3, the screen gave log2 vehicle/camptothecin viability -0.686; viability with camptothecin 148; inactive. Depletion of CCR2 #4 resulted in: log2 vehicle/camptothecin viability -0.289; viability with camptothecin 106; inactive.

With knock-down of IFNB1 #1 the results were log2 vehicle/camptothecin viability -0.344; viability with camptothecin 75.5; inactive. Knock-down of IFNB1 #2 gave: log2 vehicle/camptothecin viability -0.381; viability with camptothecin 132; inactive. IFNB1 #3 gave log2 vehicle/camptothecin viability 0.106; viability with camptothecin 91.7; inactive. Silencing of IFNB1 #4 gave: log2 vehicle/camptothecin viability -0.0146; viability with camptothecin 59.5; inactive. Silencing of POMZP3 #1 gave: log2 vehicle/camptothecin viability 0.000804; viability with camptothecin 82.6; inactive. POMZP3 #2 showed log2 vehicle/camptothecin viability -0.425; viability with camptothecin 130; inactive.

POMZP3 #3 showed log2 vehicle/camptothecin viability -0.492; viability with camptothecin 57.5; inactive. Silencing of SGMS2 #1 gave: log2 vehicle/camptothecin viability 0.151; viability with camptothecin 85.6; inactive. With knock-down of SGMS2 #2, the screen gave log2 vehicle/camptothecin viability -0.129; viability with camptothecin 116; inactive. Against SGMS2 #3 the deposit lists log2 vehicle/camptothecin viability -0.329; viability with camptothecin 69; inactive.
